The record followed here is PubChem BioAssay AID200 (DTP/NCI, 2004).

The list is a part of this screen's results and no random one: it is rich in T/C values a quarter to a half above the control, in often repeated tests (any T/C) and in doses without a T/C. Further doses and runs are listed elsewhere. T/C gives the treated animals as a percentage of the vehicle group. Some doses have a count of surviving animals in place of a T/C: the source holds a T/C of zero for them, seemingly a mark for toxic or unscored doses. Some survivor counts are full or nearly so, which does not show that the dose was tolerated: the source hardly ever lists a survival T/C far under the control, and the zero likely stands for such cases as well. Survivors were counted at the toxicity check, usually on the fifth day, unless a day is given; later deaths do not show. Schedules are NCI's codes, read here as Q, the interval in days (D) or hours (H), X, the number of doses. Some entries hold several experiments; their values stand side by side, smallest first. For survival time, this PubChem deposit counts one and a half times the control or more as active, and values a quarter to a half above the control carry no call in these data; other NCI protocols may use other cut-offs. Some T/C values carry the count of animals alive at the toxicity check (mostly the fifth day); where none is given, no animal had died by that day.

The assay concerns B6C3F1 mice, B16 melanoma ip, median survival T/C. In words: NCI In Vivo Anticancer Drug Screen. Data for tumor model B16 Melanoma (intraperitoneal) in B6C3F1 mice. The settings on record: T/C endpoint: median survival time, higher T/C = longer survival. Summed up:
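Mice bearing transplanted tumor were dosed with compound or vehicle, and survival was recorded. Activity is expressed as the treated-group measurement (T) divided by the vehicle control measurement (C).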

Where [1] appears, read: dose: 4.0 mg/kg/injection, schedule: Q01DX009 (ip), vehicle: saline + alcohol.
Setting [2] is: dose: 24.0 mg/kg/injection, schedule: Q01DX009 (ip), vehicle: Klucel (hydroxypropylcellulose) (HPC).
Where [3] appears, read: dose: 100.0 mg/kg/injection, schedule: Q01DX009 (ip), vehicle: saline with Tween-80.
[4] abbreviates: dose: 400.0 mg/kg/injection, schedule: Q01DX009 (ip), vehicle: saline with Tween-80.
The mark [5] stands for this setting: dose: 200.0 mg/kg/injection, schedule: Q01DX009 (ip), vehicle: saline.

As to `ClCC[N+]12CC[N+](CCCl)(CC1)C2`, the survivor count (dose: 200.0 mg/kg/injection, schedule: Q01DX009 (ip), vehicle: water) is 4 of 10.
Consider `COC(=O)C12OCC34C(CC5C(C)=CC(=O)C(O)C5(C)C3C(O)C1O)OC(=O)C(OC(=O)CC(C)C)C24` (centres undefined), for which the T/C reads like this: (dose: 0.25 mg/kg/injection, schedule: Q01DX009 (ip), vehicle: saline + alcohol) 125 % of control; (dose: 0.5 mg/kg/injection, schedule: Q01DX009 (ip), vehicle: saline + alcohol) 130 % of control; (dose: 1.0 mg/kg/injection, schedule: Q01DX009 (ip), vehicle: saline + alcohol) 142 % of control; under setting [1], 136 % of control [8 of 10 alive]. The survivor count is on record as 6 of 9 (dose: 2.0 mg/kg/injection, schedule: Q01DX009 (ip), vehicle: saline + alcohol) and 0 of 9 under setting [1].
Take `COc1cc2c(cc1OC)-c1c3c(cc4c1[C@@H](C2)N(C)CC4)OCO3`: the survivor count (dose: 100.0 mg/kg/injection, schedule: Q01DX009 (ip), vehicle: distilled water + Tween-80) is 10 of 10.
As for `N#CCCN(C(=S)Nc1cccc(C(F)(F)F)c1)C1CCCCC1`, the survivor count (dose: 800.0 mg/kg/injection, schedule: Q01DX009 (ip), vehicle: saline with Tween-80) is given as 10 of 10.
Turning to `NC(CCl)=NCC12CC3CC(CC(C3)C1)C2`, the T/C under setting [2] was 125 and 142 % of control. Besides, the survivor count (dose: 48.0 mg/kg/injection, schedule: Q01DX009 (ip), vehicle: Klucel (hydroxypropylcellulose) (HPC)) is reported as 7 of 10.
In the case of `CC[C@@]1(O)C[C@H](OC2CC(N(C)C)C(OC3CC(O)C(OC4CCC(=O)C(C)O4)C(C)O3)C(C)O2)c2c(cc3c(c2O)C(=O)c2c(O)ccc(O)c2C3=O)[C@H]1C(=O)OC` (some centres undefined), the survivor count reads like this: (dose: 2.0 mg/kg/injection, schedule: Q01DX009 (ip), vehicle: water) 10 of 10; (dose: 4.0 mg/kg/injection, schedule: Q01DX009 (ip), vehicle: water) 10 of 10; (dose: 8.0 mg/kg/injection, schedule: Q01DX009 (ip), vehicle: water) 1 of 10.
Turning to `CC(=O)O[C@@H]1CO[C@H]2O[C@H]3[C@@H](C(C=O)=C[C@H](O)[C@@H]4C5=C(C(C)C)CC[C@]5(C)CC[C@@]34C)[C@@]2(O)C1=O`, the survivor count is 8 of 10 (dose: 6.0 mg/kg/injection, schedule: Q01DX009 (ip), vehicle: Klucel (hydroxypropylcellulose) (HPC)); 0 of 10 (dose: 12.0 mg/kg/injection, schedule: Q01DX009 (ip), vehicle: Klucel (hydroxypropylcellulose) (HPC)); 0 of 10 under setting [2].
Take `CCCCOc1ccc(C(=O)SCCCN=C(N)N)cc1`: the survivor count is 10 of 10 (dose: 12.5 mg/kg/injection, schedule: Q01DX009 (ip), vehicle: suspension in saline) and 10 of 10 (dose: 50.0 mg/kg/injection, schedule: Q01DX009 (ip), vehicle: suspension in saline).
With `CN(C)/N=N/c1nc[nH]c1C(N)=O`, the T/C reads like this: (dose: 50.0 mg/kg/injection, schedule: Q01DX009 (ip), vehicle: distilled water + Tween-80) 125 % of control; under setting [3], 125 % of control. For the same compound, the survivor count is, setting by setting: (dose: 200.0 mg/kg/injection, schedule: Q01DX009 (ip), vehicle: distilled water + Tween-80) 8 of 10; (dose: 400.0 mg/kg/injection, schedule: Q01DX009 (ip), vehicle: distilled water + Tween-80) 9 of 10; under setting [4], 9 of 10.
Turning to `O=S(O)O`, the survivor count (dose: 800.0 mg/kg/injection, schedule: Q01DX009 (ip), vehicle: saline) is listed as 0 of 10.
For `COc1ccc(C[C@H](N)C(=O)NC2C(CO)OC(n3cnc4c(N(C)C)ncnc43)C2O)cc1` (some centres undefined), where the note is “dose: 80.0 mg/kg/injection, schedule: Q01DX009 (ip), vehicle: saline”, the T/C is 128 and 134 % of control. Further, the survivor count (dose: 160.0 mg/kg/injection, schedule: Q01DX009 (ip), vehicle: saline) was 8 of 10 and 7 of 7.
With `CC(O)C(NC(=O)OC(C)(C)C)C(=O)O` (centres undefined), the survivor count under setting [5] is on record as 10 of 10.
Take `O=C1c2ccccc2C(=O)c2c(NCCNCCO)ccc(O)c21`: the T/C was 130 % of control (dose: 5.0 mg/kg/injection, schedule: Q01DX009 (ip), vehicle: suspension in saline) and 129 % of control (dose: 10.0 mg/kg/injection, schedule: Q01DX009 (ip), vehicle: suspension in saline).
`[Cl][Pt][Cl].[NH-]C(CO)C(=O)O` (centres undefined): the survivor count is recorded as 9 of 10 (dose: 50.0 mg/kg/injection, schedule: Q01DX009 (ip), vehicle: water) and 1 of 10 (dose: 100.0 mg/kg/injection, schedule: Q01DX009 (ip), vehicle: water).
Turning to `C=C1[C@@H](O)[C@]2(O)OC[C@@]34[C@H]1[C@@H](OC(=O)C(C)CC)C(=O)O[C@@H]3C[C@H]1C(C)=CC(=O)[C@@H](O)[C@]1(C)[C@@H]24` (some centres undefined), where the note is “dose: 0.5 mg/kg/injection, schedule: Q01DX009 (ip), vehicle: saline with Tween-80”, the T/C was 146 % of control.
On to `O=C(O)[C@H](Cc1ccccc1)N1C(=O)c2ccccc2C1=O`, for which, under “dose: 400.0 mg/kg/injection, schedule: Q01DX009 (ip), vehicle: DMSO”, the survivor count was 9 of 10.
With `O=CC=O`, under setting [4], the survivor count was 0 of 10 and 8 of 10.
Regarding `CCOC(=O)Nc1cc2c(c(N)n1)N=C(c1ccc3ccccc3c1)CN2`, the T/C reads like this: (dose: 1.87 mg/kg/injection, schedule: Q01DX009 (ip), vehicle: saline with Tween-80) 133 % of control; (dose: 3.75 mg/kg/injection, schedule: Q01DX009 (ip), vehicle: saline with Tween-80) 141 % of control. The survivor count runs as follows: (dose: 7.5 mg/kg/injection, schedule: Q01DX009 (ip), vehicle: saline with Tween-80) 10 of 10; (dose: 8.0 mg/kg/injection, schedule: Q01DX009 (ip), vehicle: saline with Tween-80) 10 of 10; (dose: 15.0 mg/kg/injection, schedule: Q01DX009 (ip), vehicle: saline with Tween-80) 9 of 10; (dose: 16.0 mg/kg/injection, schedule: Q01DX009 (ip), vehicle: saline with Tween-80) 10 of 10; (dose: 32.0 mg/kg/injection, schedule: Q01DX009 (ip), vehicle: saline with Tween-80) 10 of 10.
Consider `Oc1ccccc1C=NCCC[N-]CCCN=Cc1ccccc1O.[Co]`, for which the survivor count runs as follows: (dose: 100.0 mg/kg/injection, schedule: Q01DX009 (ip), vehicle: saline) 10 of 10; (dose: 200.0 mg/kg/injection, schedule: Q01DX008 (ip), vehicle: saline) 4 of 10; under setting [5], 0 of 10.
As for `N#CCS(=O)(=O)c1cccc[n+]1[O-]`, the survivor count under setting [4] is reported as 6 of 8.
For the compound `C[CH2][Ge]([CH2]C)[CH2]C.C[CH2][Ge]([CH2]C)[CH2]C.C[CH2][Ge]([CH2]C)[O][Ge]([CH2]C)[CH2]C`, for the setting “dose: 25.0 mg/kg/injection, schedule: Q01DX009 (ip), vehicle: saline with Tween-80”, the survivor count is recorded as 10 of 10.
As for `Cc1ccc(S(=O)(=O)OCCN(CCOS(=O)(=O)c2ccc(C)cc2)c2ccc(F)cc2)cc1`, under “dose: 100.0 mg/kg/injection, schedule: Q01DX009 (ip), vehicle: saline + alcohol”, the T/C is 127 % of control.
With `O=S(=O)(O)C1=CC(=N\Cl)/C=CC/1=N/Cl`, the survivor count reads like this: (dose: 200.0 mg/kg/injection, schedule: Q01DX009 (ip), vehicle: saline + Tween-80 + alcohol) 2 of 9; (dose: 400.0 mg/kg/injection, schedule: Q01DX009 (ip), vehicle: saline + Tween-80 + alcohol) 0 of 10.
Regarding `ClC1=C(Cl)C(Cl)=C(Cl)C1=Cc1ccccc1`, the survivor count by setting is: (dose: 50.0 mg/kg/injection, schedule: Q01DX009 (ip), vehicle: saline with Tween-80) 10 of 10; under setting [3], 2 of 10.
As to `[Cl][Pt+2][Cl].[NH-]c1ccccc1[NH-]`, the T/C (dose: 2.5 mg/kg/injection, schedule: Q01DX009 (ip), vehicle: saline with Tween-80) was 138 % of control. In addition, the survivor count (dose: 10.0 mg/kg/injection, schedule: Q01DX009 (ip), vehicle: saline with Tween-80) was 10 of 10.
